{"sequences": {"note": "Protein sequences, listed by entry. Tags and fused reporters are not part of them.", "UniProt P26038": "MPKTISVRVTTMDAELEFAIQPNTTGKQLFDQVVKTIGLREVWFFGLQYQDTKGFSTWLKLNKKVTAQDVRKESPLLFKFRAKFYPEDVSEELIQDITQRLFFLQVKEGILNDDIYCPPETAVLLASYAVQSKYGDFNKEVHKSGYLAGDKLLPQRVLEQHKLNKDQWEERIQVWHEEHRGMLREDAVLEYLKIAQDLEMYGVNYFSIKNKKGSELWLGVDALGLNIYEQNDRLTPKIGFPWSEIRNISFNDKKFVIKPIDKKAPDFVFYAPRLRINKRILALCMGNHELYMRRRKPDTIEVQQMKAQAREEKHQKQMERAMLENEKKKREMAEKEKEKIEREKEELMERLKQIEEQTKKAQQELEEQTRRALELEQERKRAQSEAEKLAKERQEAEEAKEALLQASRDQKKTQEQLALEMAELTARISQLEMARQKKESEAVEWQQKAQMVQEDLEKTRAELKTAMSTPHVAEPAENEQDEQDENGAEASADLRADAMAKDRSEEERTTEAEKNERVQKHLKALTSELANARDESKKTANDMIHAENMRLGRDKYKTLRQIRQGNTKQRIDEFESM", "UniProt P06733": "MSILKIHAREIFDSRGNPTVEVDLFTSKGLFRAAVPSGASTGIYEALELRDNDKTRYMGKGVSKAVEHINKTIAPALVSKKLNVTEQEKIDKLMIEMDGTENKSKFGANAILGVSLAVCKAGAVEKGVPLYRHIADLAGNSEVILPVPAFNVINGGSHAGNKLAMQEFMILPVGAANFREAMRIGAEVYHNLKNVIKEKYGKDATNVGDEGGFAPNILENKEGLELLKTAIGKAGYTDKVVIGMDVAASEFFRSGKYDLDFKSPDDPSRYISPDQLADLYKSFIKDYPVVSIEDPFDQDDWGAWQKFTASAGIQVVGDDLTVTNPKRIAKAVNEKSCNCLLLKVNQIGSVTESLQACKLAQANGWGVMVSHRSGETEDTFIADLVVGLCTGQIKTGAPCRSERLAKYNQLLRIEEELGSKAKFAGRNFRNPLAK"}, "source": "paper PMC10008730", "binders": {"B1": {"name": "Metadherin (Mtdh) (protein, UniProt Q86UE4 1-582)", "chain": "MAARSWQDELAQQAEEGSARLREMLSVGLGFLRTELGLDLGLEPKRYPGWVILVGTGALGLLLLFLLGYGWAAACAGARKKRRSPPRKREEAAAVPAAAPDDLALLKNLRSEEQKKKNRKKLSEKPKPNGRTVEVAEGEAVRTPQSVTAKQPPEIDKKNEKSKKNKKKSKSDAKAVQNSSRHDGKEVDEGAWETKISHREKRQQRKRDKVLTDSGSLDSTIPGIENTITVTTEQLTTASFPVGSKKNKGDSHLNVQVSNFKSGKGDSTLQVSSGLNENLTVNGGGWNEKSVKLSSQISAGEEKWNSVSPASAGKRKTEPSAWSQDTGDANTNGKDWGRSWSDRSIFSGIGSTAEPVSQSTTSDYQWDVSRNQPYIDDEWSGLNGLSSADPNSDWNAPAEEWGNWVDEERASLLKSQEPIPDDQKVSDDDKEKGEGALPTGKSKKKKKKKKKQGEDNSTAQDTEELEKEIREDLPVNTSKTRPKQEKAFSLKTISTSDPAEVLVKNSQPIKTLPPATSTEPSVILSKSDSDKSSSQVPPILQETDKSKSNTKQNSVPPSQTKSETSWESPKQIKKKKKARRET"}}, "key": {"[1]": {"target": "Moesin (MSN) (human (endogenous in MDA-MB-231)) (UniProt P26038)", "test": "affinity purification with mass spectrometry; MDA-MB-231 protein samples immunoprecipitated with ENO1 and MSN; global proteomics, at least 2 MS/MS counts with one or more unique peptides"}, "[2]": {"target": "Enolase 1 (ENO1) (human (endogenous in MDA-MB-231)) (UniProt P06733)", "test": "affinity purification with mass spectrometry; MDA-MB-231 protein samples immunoprecipitated with ENO1 and MSN; global proteomics, at least 2 MS/MS counts with one or more unique peptides"}}, "note": "These are yes or no findings as the source states them, for the method shown. Binding seen in cells or lysates may run through a third protein. Here binding means that the protein was enriched with, or labelled near, the bait; the list need not be complete."}
{"binder": "B1", "values": [{"measurement": "binding", "setting": "[1]", "value": "binds"}, {"measurement": "binding", "setting": "[2]", "value": "binds"}]}
